Data taken from paper PMC9952706.

target: T1, AdpA (His-tagged) (Streptomyces coelicolor M145) (UniProt Q9L062); assay: EMSA; conditions: 0-3 µM AdpA, 20 nM probe, 2 µg poly(dI-dC), EMSA: 20 mM Tris-HCl pH 8.0, 2 mM EDTA, 20 mM KCl, 0.5 mM DTT, 4% Ficoll-400, 2 µg poly(dI-dC), room temperature, 25 min, recombinant protein, protein details: His tag (pET15b, NdeI/XhoI), probe letters rebuilt from the primers and the genome
T1 sequence (looked up, limits assumed): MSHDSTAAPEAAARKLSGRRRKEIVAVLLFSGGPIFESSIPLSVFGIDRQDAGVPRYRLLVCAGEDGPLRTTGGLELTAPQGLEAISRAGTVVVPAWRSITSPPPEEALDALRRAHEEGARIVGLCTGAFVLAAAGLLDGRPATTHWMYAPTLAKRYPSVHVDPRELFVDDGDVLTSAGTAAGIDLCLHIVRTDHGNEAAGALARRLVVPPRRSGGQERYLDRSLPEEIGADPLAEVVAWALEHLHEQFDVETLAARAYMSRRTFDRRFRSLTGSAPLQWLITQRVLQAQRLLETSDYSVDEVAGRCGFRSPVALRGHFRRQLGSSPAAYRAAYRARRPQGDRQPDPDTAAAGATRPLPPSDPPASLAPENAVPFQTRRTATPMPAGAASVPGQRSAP

Sequence | binding result
AGGTCGACGACCCCGCTCATGGACATGTTCCGTGGCTGCATGGGTCTATCCTCCCCCGTACGGCGCGCGCGTGTGAAAACCGGGTCGAAAGCCCGCCCGGATGTGTGCTGTTCGGCGTGTGTACTGCCCGATGCGTGTGCTGCTCGGCGCCGGGTCCCCACCCCACGCCCGTGGTCGTCGCTGGGGCGCGGGCGGACCCGCGCTTTCGCTACGAGTCGTAGCGTAATGCCAGGACGGCCCGTCGGAACACCCCACCGCCAGACCCCGTCGCGGTGATCTGTCTCACCACCGGCCGCGTGTTACCCGCCGGTTAAGGTCGGGGGATGCAGAGCAGC (double strand) [trxA4 (sco5419) promoter probe] | binds
CTACAAGGGCAGGGAAGCCTTGCTGGTGGTACTGCCCGACGCCACCAATGACACCCAGGTCACCGCCTACATCGTCGAGACGGCGTGCGTGGATCAGCCCGCGGTGGGCAAGGCCAAGATCCTTCTCGAGCACTCCTACGCGCGTTCGTAGCGGCCCTTCCACCCTCTCGCCAGGCGGGCTGTGCCCTGCCGCCGTGTGCCCGGGCACAGCGGGAATGCGCGCCCCGTAGGATCCGTTAGGTGGGGTGAGAGTTCCGAGTGCAGCTCCACCCGGCCCTGAAGACGCAGTCCAGAGACGAGGAATGAAGCCGTGAGCGACGTCCGAAACGTGATC (double strand) [trxB (sco3890) promoter probe] | binds
TTGCTGGGCATGCACGCCCAGTAGGAGCATTCGCCGCCGACCAGTTCGCTCTCCACGATCGCGGTGGACAGTCCGGCCGCCCGGGTGCGGTCGGCGACGTTCTCGCCGACGGGGCCCGCGCCGATCACGACGACGTCGTACGTGAGGGAATCCGATTGCGTCATGGGGTCAGTCTGGTGGGTGGTGTGCGGCGTGGCCACATGGGTACGTGCGCGGAATACCCACCAGGTCGGCAGTGTTGTGCCGACGGCTTCTCCCCCGAAACCAGGAAGAGGGATCACCTCATGACCAGCACCGTGGAACTCACCAAG (double strand) [trxA3/C (sco0885) promoter probe] | binds

Construct, isoform or probe ends are uncertain for at least one entry. Tags and fusion partners may be left off the protein sequences shown.
